Laboratory results published in patent US20240329063A1, “METHOD FOR EVALUATING RESIDUAL PLATELET THROMBOTIC POTENTIAL IN PATIENTS UNDERGOING ANTIPLATELET TREATMENT” (Centro Cardiologico Monzino S.P.A., priority 2021, published 2024).

Test system: TF
Details: clopidogrel 75 mg/day, good responders (PRI <60%)
Experimental: The in vitro experiments were conducted on 10 healthy volunteers (n=5 males and n=5 females; average age 39±6) who had not taken antiplatelet medicaments in the 10 days before the blood sample was taken. The effect of clopidogrel on TF expression was evaluated on 193 patients suffering from coronary artery disease (CAD) with myocardial infarction with non-ST elevation. […] The clinical characteristics of the patients enrolled are set out in Table 1.
The exclusion criteria were: age >80 years, valvular heart disease, atrial fibrillation, thyrotoxicosis, history of haemorrhagic diathesis, platelet disorder or thrombocytopenia, anticoagulant or thrombolytic treatment. A subject with severe congenital P2Y12 deficiency (person) was also studied.
Whole blood (WB) samples were taken with a 19 gauge needle without venous stasis in tubes containing sodium citrate (0.129 M, 1/10 volume/volume) (Vacutainer, Becton Dickinson), discarding the first 4 ml. […] The platelet-rich plasma (PRP) was transferred to a new test tube and analysed with the Sysmex XE-2100 Automated Hematology Analyzer to determine the platelet count, mean platelet volume (MPV), platelet distribution […] (PDW), platelet recovery (defined as the percentage of the platelet count in the PRP to 100% of the number of platelets in the WB), and leukocyte contamination. […]

COC(=O)[C@H](c1ccccc1Cl)N1CCc2sccc2C1 [clopidogrel]
good responders with a percentage of TF-positive platelets exceeding the average measured in poor responders (23 of 144): 15% | good responders exceeding the poor responders by average amount of TF expressed on the platelet surface (MFI) (FIG. 2): 38%
